Measurements as given in PMC8269069.
No constants are given. Whether binding was seen depends on the method and setting. In cells and extracts the contact can be indirect. Some entries that bind do so weakly or less than the wild type.

Chains of the proteins cited; added tags and fusions are not shown.
UniProt P47941: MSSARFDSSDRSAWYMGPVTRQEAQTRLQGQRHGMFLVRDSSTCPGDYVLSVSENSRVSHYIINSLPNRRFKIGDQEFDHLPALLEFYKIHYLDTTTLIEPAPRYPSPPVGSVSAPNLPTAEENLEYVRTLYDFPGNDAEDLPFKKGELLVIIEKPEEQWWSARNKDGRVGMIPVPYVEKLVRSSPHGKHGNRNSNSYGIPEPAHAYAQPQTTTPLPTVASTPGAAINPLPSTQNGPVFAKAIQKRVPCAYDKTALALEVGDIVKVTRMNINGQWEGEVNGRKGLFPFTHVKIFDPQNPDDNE
UniProt Q08775: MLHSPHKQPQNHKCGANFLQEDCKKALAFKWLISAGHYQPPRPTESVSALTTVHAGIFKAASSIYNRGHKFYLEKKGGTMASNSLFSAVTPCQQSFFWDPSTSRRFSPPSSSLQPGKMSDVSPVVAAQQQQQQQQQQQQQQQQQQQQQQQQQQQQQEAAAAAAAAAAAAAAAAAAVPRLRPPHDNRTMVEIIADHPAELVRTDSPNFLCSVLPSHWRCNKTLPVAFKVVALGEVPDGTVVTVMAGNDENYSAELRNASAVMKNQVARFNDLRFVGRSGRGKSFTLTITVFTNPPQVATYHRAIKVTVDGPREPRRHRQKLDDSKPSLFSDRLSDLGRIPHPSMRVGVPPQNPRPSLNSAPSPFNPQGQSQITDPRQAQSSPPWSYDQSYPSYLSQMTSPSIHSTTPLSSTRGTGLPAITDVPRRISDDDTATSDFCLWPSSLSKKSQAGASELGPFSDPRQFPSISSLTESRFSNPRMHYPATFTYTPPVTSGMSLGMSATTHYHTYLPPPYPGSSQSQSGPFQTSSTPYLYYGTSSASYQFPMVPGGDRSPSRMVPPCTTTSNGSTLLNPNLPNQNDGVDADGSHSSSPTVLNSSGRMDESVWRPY

Molecular target: v-crk avian sarcoma virus CT10 oncogene homolog-like (CrkL) (UniProt P47941)
Test: co-IP; HEK-293T cells transfected with Runx2 or Runx2 and CrkL for 2 days; NP-40 lysis buffer (150 mM NaCl, 1 mM EDTA, 1% NP-40, 50 mM Tris-HCl pH 8.0); immunoprecipitation overnight with anti-FLAG M2 antibody and protein G; blots against FLAG and Runx2

binding: binds
Substance: runt-related transcription factor 2 (Runx2) (from UniProt Q08775 1-607)
